# Measured values reported in paper PMC12670160, “A drug-repurposing screen of FDA- and EMA-approved drugs identifies two NF-κB inhibitors active against eumycetoma” (Journal of Antimicrobial Chemotherapy, 2025).
# Structures can show the parent of a compound that is named as a salt. Where two headings read alike, the source gives them in different places. Out of some 5,300 compounds screened, about 130 (2.5%) showed an effect of 50% or more. This is one part of the list. Bridge positions count the residues as written; N and C are the ends. Peptide text beside a SMILES is read from it.
# Test system: M. mycetomatis strain mm55
# Settings: 96 h, 2 µM
# [1] = primary screen, metabolic activity vs growth control, inhibitor
Compound,% viability (m. mycetomatis hyphae) [%],% viability [1] [%]
"Oc1ccc2c3c1O[C@H]1c4[nH]c5ccccc5c4C[C@@]4(O)[C@@H](C2)N(CC2CC2)CC[C@]314 [ONC0001519, naltrindole]",93.26,
"O=C(O)CCCO [ONC0003295, sodium oxybate]",77.46,
"CC(N)Cc1ccc(O)cc1 (centres unmarked) [ONC0003776, hydroxyamphetamine]",86.52,
"CC(=O)[C@H]1CC[C@H]2[C@@H]3CC[C@H]4C[C@H](O)CC[C@]4(C)[C@H]3CC[C@]12C [ONC0001903, 353hydroxypregnan20one]",61.39,
"CN1CCN(C(=O)O[C@H]2c3nccnc3C(=O)N2c2ccc(Cl)cn2)CC1 [ONC0002782, eszopiclone]",79.72,
"CC(C)(O)[C@H]1[C@@H]2OC(=O)[C@@H]1[C@]1(O)C[C@H]3O[C@]34C(=O)O[C@H]2[C@]14C [ONC0002779, picrotin]",109.3,
"C[C@@H]1NC(=O)[C@@H]2CCCN2C(=O)[C@H](CC(N)=O)NC(=O)[C@@H]2CSSC[C@H](N)C(=O)N[C@H]3CSSC[C@H](NC1=O)C(=O)N[C@@H]([C@@H](C)O)C(=O)NCC(=O)N[C@H](C(=O)N[C@@H](Cc1ccc(O)cc1)C(=O)O)CSSC[C@H](NC(=O)[C@H](Cc1ccc(O)cc1)NC(=O)[C@H](CCC(=O)O)NC3=O)C(=O)N2 [ONC0002236, linaclotide] (H-CCEYCCNPACTGCY-OH; disulfide 1-6, 2-10, 5-13)",72.91,
"C=CCN.ClCC1CO1 (centres unmarked) [ONC0004792, sevelamer hcl]",92.43,
"CN1[C@@H]2CC[C@H]1C[C@@H](OC(=O)c1c[nH]c3ccccc13)C2.CN1[C@@H]2CC[C@H]1C[C@H](OC(=O)c1c[nH]c3ccccc13)C2 [ONC0003140, tropisetron]",83.9,
"CC1(C)C(=O)N(c2ccc(C#N)c(C(F)(F)F)c2)C(=O)N1CCCCO [ONC0001028, ru 58841]",78.08,
"CN(Cc1cccc(-c2ccccc2)c1)C(=O)Oc1ccc(-c2ccc(C(N)=O)cc2)cc1 [ONC0003622, wwl123]",91.12,
"COC1=C[C@@H]2[C@@H]3Cc4ccc(OC)c(O)c4[C@]2(CCN3C)CC1=O [ONC0005014, sinomenine cucoline]",90.79,
"COc1ccc(N(C(=O)Oc2c(C)cccc2C)c2ccnc(Nc3ccc(N4CCN(C)CC4)cc3)n2)c(OC)c1 [ONC0001319, wh4023]",109.2,
"CCC1(c2ccccc2)C(=O)N(COC)C(=O)N(COC)C1=O [ONC0003244, eterobarb]",97.7,
"CC(C)N(CCc1c[nH]c2ccccc12)C(C)C [ONC0004089, dipt]",117.6,
"CCOC(=O)c1cncn1[C@H](C)c1ccccc1 [ONC0004128, etomidate]",104.1,
"COc1cc2cc(c1Cl)N(C)C(=O)C[C@H](OC(=O)C(C)C)[C@]1(C)O[C@H]1[C@H](C)[C@@H]1C[C@@](O)(NC(=O)O1)[C@H](OC)/C=C/C=C(\C)C2 [ONC0000769, ansamitocin p3]",44.45,
"OCC(O)[C@H]1O[C@@H]2O[C@H](C(Cl)(Cl)Cl)O[C@@H]2[C@H]1O (some centres unmarked) [ONC0004285, chloralose]",88.6,
"N#CCC(=O)c1ccccc1 [ONC0003704, cl225385]",88.41,
"Cc1ccc2c(c1)[C@]13CCCC[C@@H]1[C@H](C2)N(C)CC3 [ONC0001964, dimemorfan]",96.79,
"C[C@]12CC[C@H](O)C[C@H]1CC[C@@H]1[C@@H]2CC[C@]2(C)[C@@H](c3ccc(=O)oc3)C[C@H]3O[C@]132 [ONC0000923, resibufogenin]",65.14,
"CC(=O)O[C@H]1CC[C@@]2(C)C(=CCC3C2CC[C@]2(C)C(=O)CCC32)C1 (some centres unmarked) [ONC0003269, prasterone acetate]",44.2,
"NNC(=O)CN1C(=O)CN=C(c2ccccc2)c2cc(Br)ccc21 [ONC0002593, gidazepam]",72.34,
"CC[C@@H](CO)NC(=O)[C@@H]1C=C2c3cccc4[nH]cc(c34)C[C@H]2N(C)C1 [ONC0002697, methylergometrine]",60.3,
"CCOC(=O)Nc1ccc(NCc2ccc(F)cc2)cc1N [ONC0001235, retigabine]",53.09,
"COc1ccc2c(c1OC)C(=O)O[C@@H]2[C@H]1c2cc3c(cc2CCN1C)OCO3 [ONC0000646, hydrastine 1r 9s]",84.03,
"CN1[C@@H]2CC[C@H]1C[C@@H](OC(=O)c1cc(Cl)cc(Cl)c1)C2 [ONC0000390, bemesetron]",,83.79

# In another format: entries from further up
Compound	% viability (m. mycetomatis hyphae) [%]	% viability [1] [%]
CN(Cc1cccc(-c2ccccc2)c1)C(=O)Oc1ccc(-c2ccc(C(N)=O)cc2)cc1 [ONC0003622, wwl123]	91.12	
CC(=O)O[C@H]1CC[C@@]2(C)C(=CCC3C2CC[C@]2(C)C(=O)CCC32)C1 (some centres unmarked) [ONC0003269, prasterone acetate]	44.2	

# Further compounds.

Compound,% viability (m. mycetomatis hyphae) [%],% viability [1] [%]
"COc1ccc(CC2NCCc3cc(OC)c(OC)cc32)cc1OC (centres unmarked) [ONC0004956, tetrahydropapaverine hydrochloride]",85.71,
"COc1ccsc1CNCC[C@@]1(c2ccccn2)CCOC2(CCCC2)C1 [ONC0001391, oliceridine hydrochloride]",102.3,
"O=C(O)CNC(=O)C1C(=O)N(C2CCCCC2)C(=O)N(C2CCCCC2)C1=O [ONC0000974, daprodustat]",112.7,
"CCCCCCCCCCC(=O)O[C@H]1CC[C@H]2[C@@H]3CCC4=CC(=O)CC[C@]4(C)[C@H]3CC[C@]12C [ONC0001989, testosterone undecanoate]",86.49,
"CN(C(=O)/C=C/c1ccoc1)[C@@H]1CC[C@@]2(O)[C@H]3Cc4ccc(O)c5c4[C@@]2(CCN3CC2CC2)[C@H]1O5 [ONC0001145, nalfurafine hydrochloride]",84.21,
"N#C[C@H](O[C@@H]1O[C@H](CO[C@@H]2O[C@H](CO)[C@@H](O)[C@H](O)[C@H]2O)[C@@H](O)[C@H](O)[C@H]1O)c1ccccc1 [ONC0004987, amygdalin]",64.45,
"CC(=O)N1CC[N+](C)(C)CC1 [ONC0000048, 4acetyl11dimethylpiperazinium]",75.95,
"S=C=Nc1cccc(NC(=S)NCCCCNC(=S)Nc2cccc(N=C=S)c2)c1 [ONC0005101, mrs 2578]",76.23,
"CN1C[C@H](CNC(=O)OCc2ccccc2)C[C@@H]2c3cccc4c3c(cn4C)C[C@H]21 [ONC0003316, metergoline]",,72.73
"O=[N+]([O-])c1ncc[nH]1 [ONC0002747, azomycin 2nitroimidazole]",88.58,
"CCCCCCCCCC(=O)O[C@H]1CC[C@H]2[C@@H]3CCC4=CC(=O)CC[C@@H]4[C@H]3CC[C@]12C [ONC0000895, nandrolone decanoate]",54.5,
"O=C(N[C@H]1CN2CCC1CC2)c1ccc2c(c1)OCCO2 [ONC0002631, pha568487 fumarate]",74.47,
"O=C1CN=C(c2cccc(Br)c2)c2oc3ccccc3c2N1 [ONC0000192, 5bdbd]",69.26,
"Oc1ccc2c3c1O[C@H]1[C@@H](O)CC[C@@]4(O)[C@@H](C2)N(CC2CCC2)CC[C@]314 [ONC0002017, nalbuphinehcl]",86.82,
"COC(=O)C[C@](O)(CCC(C)(C)O)C(=O)O[C@@H]1C(OC)=C[C@]23CCCN2CCc2cc4c(cc2[C@H]13)OCO4 [ONC0003494, harringtonine]",81.44,
"CCOc1ccccc1O[C@@H](c1ccccc1)[C@@H]1CNCCO1.CCOc1ccccc1O[C@H](c1ccccc1)[C@H]1CNCCO1 [ONC0004420, reboxetine]",159.3,
"C[C@]12CC[C@H](O)C[C@H]1CC[C@@H]1[C@@H]2CC[C@]2(C)[C@@H](C3=CC(=O)OC3)CC[C@]12O [ONC0002328, digitoxigenin]",82.95,
"O=C(CBr)N1CC([N+](=O)[O-])([N+](=O)[O-])C1 [ONC0001848, 2bromo133dinitroazetidin1ylethan1one]",86.51,
"CCn1nc(C)c2c1C(c1ccccc1)=NCC(=O)N2 [ONC0002127, ripazepam]",106.5,
"CC(C)C[C@H](NC(=O)[C@H](CCCCN)NC(=O)[C@H](CCCN=C(N)N)NC(=O)[C@H](C)NC(=O)[C@H](CO)NC(=O)[C@H](CCCCN)NC(=O)[C@H](CCCN=C(N)N)NC(=O)[C@H](C)NC(=O)CNC(=O)[C@@H](NC(=O)[C@H](Cc1ccccc1)NC(=O)CNC(=O)CNC(=O)[C@@H](N)Cc1ccccc1)[C@@H](C)O)C(=O)N[C@@H](C)C(=O)N[C@@H](CC(N)=O)C(=O)N[C@@H](CCC(N)=O)C(=O)O [ONC0002009, orphaninfq nociceptin]",86.82,
"COC[C@@H](NC(C)=O)C(=O)NCc1ccccc1 [ONC0003496, lacosamide]",80.52,
"OCCCCO [ONC0002153, 14butanediol]",73.64,
"Cn1c2c(c3ccccc31)CCNCC2 [ONC0004357, pnu22394]",99.1,
"CCOP(=S)(OCC)Oc1ccc2c(C)c(Cl)c(=O)oc2c1 [ONC0003318, coumophos]",94.05,
"CCC1(CC)C(=O)NC(=O)N(C)C1=O [ONC0002068, metharbital]",67.65,
"CCN1C[C@]2(COC(=O)c3ccccc3N3C(=O)C[C@H](C)C3=O)CC[C@H](OC)[C@@]34[C@@H]5C[C@H]6[C@H](OC)[C@@H]5[C@](O)(C[C@@H]6OC)[C@@](O)([C@@H](OC)[C@H]23)[C@@H]14 [ONC0001918, methyllycaconitine]",86.93,

# Entries shown so far that contain fluorine, in the order listed:
Compound,% viability (m. mycetomatis hyphae) [%],% viability [1] [%]
"CC1(C)C(=O)N(c2ccc(C#N)c(C(F)(F)F)c2)C(=O)N1CCCCO [ONC0001028, ru 58841]",78.08,
"CCOC(=O)Nc1ccc(NCc2ccc(F)cc2)cc1N [ONC0001235, retigabine]",53.09,
